Results are given in words; binding and its absence hold for the method and conditions named. Binding seen in cells or lysates may run through a third protein. A result given as binding can be weak or reduced; the word gives no strength.
Target: T1, Toll-like receptor 4 (rat (endogenous in intestinal tissue)) (UniProt Q9QX05)
T1 sequence: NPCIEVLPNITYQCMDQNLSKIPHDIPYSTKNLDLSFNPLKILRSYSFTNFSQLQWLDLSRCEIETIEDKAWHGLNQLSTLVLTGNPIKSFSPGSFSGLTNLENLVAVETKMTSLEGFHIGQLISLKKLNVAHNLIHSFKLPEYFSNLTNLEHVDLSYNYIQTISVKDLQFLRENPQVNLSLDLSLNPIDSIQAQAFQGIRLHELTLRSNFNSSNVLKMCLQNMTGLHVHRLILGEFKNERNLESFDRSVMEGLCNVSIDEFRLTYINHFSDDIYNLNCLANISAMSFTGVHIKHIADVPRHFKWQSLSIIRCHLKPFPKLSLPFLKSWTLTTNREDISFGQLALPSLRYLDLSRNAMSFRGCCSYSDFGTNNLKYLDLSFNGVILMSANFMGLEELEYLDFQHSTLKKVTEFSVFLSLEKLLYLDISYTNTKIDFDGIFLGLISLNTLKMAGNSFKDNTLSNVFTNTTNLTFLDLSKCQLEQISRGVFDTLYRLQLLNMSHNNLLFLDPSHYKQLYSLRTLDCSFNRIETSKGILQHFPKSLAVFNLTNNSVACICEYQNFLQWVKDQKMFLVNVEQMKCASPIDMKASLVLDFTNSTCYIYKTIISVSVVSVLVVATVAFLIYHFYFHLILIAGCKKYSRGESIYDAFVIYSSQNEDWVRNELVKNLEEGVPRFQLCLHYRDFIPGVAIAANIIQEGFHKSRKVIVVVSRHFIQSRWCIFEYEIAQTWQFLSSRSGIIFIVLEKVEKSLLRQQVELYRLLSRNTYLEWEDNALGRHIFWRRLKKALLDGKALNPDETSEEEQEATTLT
Assay: co-IP; intestinal tissue lysates (300-500 ug) of neonatal rats (control, NEC, NEC pretreated with the MD2 inhibitor MD2-IN-1) incubated overnight at 4°C with primary TLR4 antibody, Protein A/G Sepharose beads, eluted in SDS loading buffer, western blot for MD2

binding: binds
Substance: Myeloid differentiation protein 2 (rat (endogenous in intestinal tissue))

— PMC9663461
